This is an account of results in paper PMC12345722.

The exact form of at least one protein or probe is not confirmed.

Series [1] has as its system Glycated hemoglobin (HbA1c). Put plainly: binding assay. Particulars: Aptamer in 0.1 M TRIS, 0.1 M NaCl, 0.1 M KCl, 5 mM MgCl2, pH 7.5; HbA1c in Trinity Biotech Diluent, incubated 30-60 min at 4, 25 or 37 C; commercial protein; single-stranded DNA.
The test system of series [2] is Glycated hemoglobin (HbA1c). The series is described as follows: electrochemical aptasensor (direct Fe2+/Fe3+ oxidation peak). The settings on record: 5.5% HbA1c, about 20 uA at about -0.37 V, aptamer on SPE/CD-CNTs/AuNPs, MCH blocked; 5' thiol-Spacer C6; 3' ferrocene; Aptamer in 0.1 M TRIS, 0.1 M NaCl, 0.1 M KCl, 5 mM MgCl2, pH 7.5; HbA1c in Trinity Biotech Diluent, incubated 30-60 min at 4, 25 or 37 C; commercial protein; label: ferrocene (3'); single-stranded DNA.

Broadly, the Kd is the constant that tells how readily two partners part at equilibrium. “TGGCAGGAAGACAAACACATCGTCGCGGCCTTAGGAGGGGCGGACGGGGGGGGGCGTGGTCTGTGGTGCTGT [HbA1c DNA aptamer (literature, ref 6)]” returned a Kd in series [1] of 7.3 nM. That is a single-digit nanomolar value. For “TGGCAGGAAGACAAACACATCGTCGCGGCCTTAGGAGGGGCGGACGGGGGGGGGCGTGGTCTGTGGTGCTGT [HbA1c DNA aptamer, thiol/ferrocene]”, the binding result in series [2] is “binds”.
